Assay results as given in patent EP2774935A1.
No constants are given. Whether binding was seen depends on the method and setting. Some results given as binding are weak or reduced against the parent protein; the word gives no strength. Sequences can lack the tags named with a protein.

T1: recombinant human GFRα2-Fc chimera (R&D Systems) (human) (UniProt O00451)
T1 sequence (looked up): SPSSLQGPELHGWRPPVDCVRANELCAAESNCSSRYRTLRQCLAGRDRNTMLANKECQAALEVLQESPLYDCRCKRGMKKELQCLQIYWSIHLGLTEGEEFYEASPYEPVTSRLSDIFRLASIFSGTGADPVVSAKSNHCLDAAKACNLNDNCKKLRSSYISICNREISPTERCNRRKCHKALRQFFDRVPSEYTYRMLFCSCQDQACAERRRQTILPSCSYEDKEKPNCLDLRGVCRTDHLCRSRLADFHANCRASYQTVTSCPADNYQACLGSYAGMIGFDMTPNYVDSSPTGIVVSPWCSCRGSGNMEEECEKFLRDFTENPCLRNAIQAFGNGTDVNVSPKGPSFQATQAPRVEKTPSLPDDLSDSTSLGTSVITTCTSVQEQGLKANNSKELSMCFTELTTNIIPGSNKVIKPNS


Target: T1, recombinant human GFRα2-Fc chimera (R&D Systems) (human)
Assay: precipitation from CHO medium with GFRα2-Fc and Protein G-Sepharose, Western blot (results not shown)

Binder	binding
wild-type V5-tagged neurturin (ligand) ARGKPIPNPLLGLDSTSGARLGARPCGLRELEVRVSELGLGYASDETVLFRYCAGACEAAARVYDLGLRRLRQRRRLRRERVRAQPCCRPTAYEDEVSFLDAHSRYHTVHELSARECACV	binds
V5-tagged neurturin variant NV1 (ligand) ARGKPIPNPLLGLDSTSGARLGARPCGLRELEVRVSELGLGYASDETVLFRYCAGACEAAARVYDLGLRALRQARALRRERVRAQPCCRPTAYEDEVSFLDAHSRYHTVHELSARECACV	binds
V5-tagged neurturin variant NV2 (ligand) ARGKPIPNPLLGLDSTSGARLGARPCGLRELEVRVSELGLGYASDETVLFRYCAGACEAAARVYDLGLRRLAQRRRLRAEAVRAQPCCRPTAYEDEVSFLDAHSRYHTVHELSARECACV	binds
V5-tagged neurturin variant NV3 (ligand) ARGKPIPNPLLGLDSTSGARLGARPCGLRELEVRVSELGLGYASDETVLFRYCAGACEAAARVYDLGLRALAQARALRAERVRAQPCCRPTAYEDEVSFLDAHSRYHTVHELSARECACV	binds
V5-tagged neurturin variant NV4 (ligand) ARGKPIPNPLLGLDSTSGARLGARPCGLRELEVRVSELGLGYASDETVLFRYCAGACEAAARVYDLGLARLQGQGALVGSRVRAQPCCRPTAYEDEVSFLDAHSRYHTVHELSARECACV	binds
